Data as given in PubChem BioAssay AID1259254 (NCATS, 2017)

- Purpose: 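Genome-wide screen for genes that prevent DNA re-replication in cancer cells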 (primary screen)
- Cell system: human HCT116 colorectal cancer cells
- Reagent: single siRNA against human genes
- Timing: 3 days
- Read-out: 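Imaged Hoechst DNA stain sorts each cell into a cycle phase by DNA amount; per plate, G2 fraction set to 0% for non-targeting and 100% for GMNN siRNA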
- Scale: G2 robust z-score: higher = more G2 cells, more excess DNA replication
- Rule for the call: 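An siRNA counts as active if its G2 robust z-score lies at least 5 MADs above the screen median; here such calls match roughly 38% of GMNN control or more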
The whole screen tested about 59,000 reagents; below is a random part of them. About 1,550 of all reagents (2.6%) count as active. 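G2 share is only a proxy for re-replication; each gene was hit by three separate siRNAs, and active genes were retested.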 A number with no mark means an inactive call. Further read-outs or replicates are left out here. Not stated in the record: the amount of reagent.

TNFRSF13B [SID160736391] — G2 robust z-score: -0.597
TNFRSF13B [SID160736392] — G2 robust z-score: -0.0264
TNFRSF13B [SID160736393] — G2 robust z-score: -1.44
POLD2 [SID160714594] — G2 robust z-score: 0.863
POLD2 [SID160714595] — G2 robust z-score: 0.564
POLD2 [SID160714597] — G2 robust z-score: -0.142

2 entries already listed, arranged by “G2 robust z-score”, ascending:
POLD2 [SID160714597] — G2 robust z-score: -0.142
POLD2 [SID160714595] — G2 robust z-score: 0.564

Further records follow.
RAB2B [SID160752970] — G2 robust z-score: 0.0696
RAB2B [SID160752971] — G2 robust z-score: -0.525
RAB2B [SID160752973] — G2 robust z-score: -0.756
UBAP2 [SID160744478] — G2 robust z-score: -0.085
UBAP2 [SID160744480] — G2 robust z-score: 3.84
UBAP2 [SID160744481] — G2 robust z-score: 5.06 (active)
POLRMT [SID160714646] — G2 robust z-score: -1.11
POLRMT [SID160714647] — G2 robust z-score: -0.736
POLRMT [SID160714648] — G2 robust z-score: -0.767
TSPAN17 [SID160730926] — G2 robust z-score: -0.72
TSPAN17 [SID160737859] — G2 robust z-score: -0.524
TSPAN17 [SID160737861] — G2 robust z-score: -0.216
